“And” between values parts separate entries of the source, which are not always exact repeats. Identical values can stand only once. Some of the results follow. Single wells; the ratio to wells without odorant was worked out here, and repeats agree poorly.

The test system of the first experiment is OR6K6 clone 1392. As to the kind of experiment: odorant receptor activation (CRE luciferase / Renilla) (fold of no-odor wells); higher = more activation. Particulars: 100 µM.
Regarding `CC1=NC(C)SC1C` (stereo unspecified), the odorant receptor activation was found to be 1.05.

Take `CC(C)C=O` [isobutyraldehyde]: the odorant receptor activation is 0.934.

In turn, `C=CC(C)(O)CCC=C(C)C` (stereo unspecified) [linalool] registered an odorant receptor activation of 0.656.

With `O=CCc1ccccc1` [phenyl acetaldehyde], the odorant receptor activation amounted to 1.47.

`CCCCCCCCCCC=O` [undecanal] displayed an odorant receptor activation of 1.3.

Compound `CC1COCc2cc3c(cc21)C(C)(C)C(C)C3(C)C` (stereo unspecified) [galaxolide] registered an odorant receptor activation of 3.38.

Take `CCCCCC(C)=O` [2-heptanone]: the odorant receptor activation was determined as 0.961.

The compound `CC(C)C(=O)O` [isobutyric acid] returned an odorant receptor activation of 0.726.

`O=C1CCCCC1` [Cyclohexanone] came in with an odorant receptor activation of 1.04.

In the case of `CC(C)CCC(=O)O` [4-methylvaleric acid], the odorant receptor activation was 1.02.

With `CCCCCOC(C)=O` [n-amyl acetate], the odorant receptor activation was found to be 0.795.

Compound `CC12C=CCC1C1CCC3=CC(=O)CCC3(C)C1CC2` (stereo unspecified) [androstadienone] returned an odorant receptor activation of 0.907.

`CC(=O)OC(C)(C)C1CC=C(C)CC1` (stereo unspecified) [terpinyl acetate]: the odorant receptor activation came to 1.

Regarding `CC=Cc1ccc(O)c(OC)c1` [isoeugenol], the odorant receptor activation is 1.12.

For the compound `CCCC(=O)O` [butyric acid], the odorant receptor activation worked out at 0.183.

Compound `C=CCSCC=C` [diallyl sulfide] had an odorant receptor activation of 1.13.

`CCCCCCC=O` [heptaldehyde]: the odorant receptor activation is 1.11 and 0.875.

The compound `CCCCCCCCCC=O` [decyl aldehyde] yielded an odorant receptor activation of 1.37.

A further experiment deals with OR6M1 clone 1182. The description is as above. The note with it: 100 µM.
Regarding `CC(C)(C)c1ccc(CCC=O)cc1` [bourgeonal], the odorant receptor activation came to 0.741.

Consider `CC(=O)c1ccccc1` [acetophenone], for which the odorant receptor activation turned out to be 1.19.

As for `CCCCCCCCC=O` [nonyl aldehyde], the odorant receptor activation worked out at 1.26.

Compound `CCCCCC(=O)O` [caproic acid] registered an odorant receptor activation of 0.926.

Compound `CC1=CCC(C(C)(C)O)CC1` (stereo unspecified) [terpineol] came in with an odorant receptor activation of 1.05.

`CCCCCCCCOC(C)=O` [octyl acetate] returned an odorant receptor activation of 0.979.

For the compound `COC(=O)c1ccccc1` [methyl benzoate], the odorant receptor activation came to 1.05.

Compound `O=C1CCCCCCCCCCCCCCO1` [pentadecalactone] came in with an odorant receptor activation of 0.652.

`COc1cc(C)ccc1O` [2-methoxy-4-methylphenol] registered an odorant receptor activation of 0.774.

As for `CC12C=CCC1C1CCC3CC(=O)CCC3(C)C1CC2` (stereo unspecified) [androstenone], the odorant receptor activation came to 3.64.

As for `CCCCCCCOC(C)=O` [heptyl acetate], the odorant receptor activation amounted to 1.05.

As for `CC1=NC(C)SC1C` (stereo unspecified), the odorant receptor activation came to 0.984.

`CC(C)C=O` [isobutyraldehyde] yielded an odorant receptor activation of 1.34.

On to `C=CC(C)(O)CCC=C(C)C` (stereo unspecified) [linalool], for which the odorant receptor activation is 1.09.

Regarding `O=CCc1ccccc1` [phenyl acetaldehyde], the odorant receptor activation is 0.862.

Regarding `CCCCCCCCCCC=O` [undecanal], the odorant receptor activation was found to be 0.875.

As to `CC1COCc2cc3c(cc21)C(C)(C)C(C)C3(C)C` (stereo unspecified) [galaxolide], the odorant receptor activation was determined as 2.99.

The compound `CCCCCC(C)=O` [2-heptanone] had an odorant receptor activation of 1.09.

The compound `CC(C)C(=O)O` [isobutyric acid] gave an odorant receptor activation of 0.948.

Regarding `O=C1CCCCC1` [Cyclohexanone], the odorant receptor activation was found to be 0.86.

In turn, `CC(C)CCC(=O)O` [4-methylvaleric acid] yielded an odorant receptor activation of 0.736.

In turn, `CCCCCOC(C)=O` [n-amyl acetate] registered an odorant receptor activation of 0.575.

With `CC12C=CCC1C1CCC3=CC(=O)CCC3(C)C1CC2` (stereo unspecified) [androstadienone], the odorant receptor activation was determined as 1.06.

On to `CC(=O)OC(C)(C)C1CC=C(C)CC1` (stereo unspecified) [terpinyl acetate], for which the odorant receptor activation was found to be 1.14.

`CC=Cc1ccc(O)c(OC)c1` [isoeugenol] displayed an odorant receptor activation of 1.71.

Regarding `CCCC(=O)O` [butyric acid], the odorant receptor activation came out at 0.783.

`C=CCSCC=C` [diallyl sulfide]: the odorant receptor activation came to 0.887.

Consider `CCCCCCC=O` [heptaldehyde], for which the odorant receptor activation is 0.331 and 0.884.

On to `CCCCCCCCCC=O` [decyl aldehyde], for which the odorant receptor activation was determined as 1.14.

In a further experiment the test system is OR6N1 I194T/F245L/Q261R/R293H clone 1038. The description is as above. Particulars: 100 µM.
The compound `CC(C)(C)c1ccc(CCC=O)cc1` [bourgeonal] came in with an odorant receptor activation of 0.78.

In turn, `CC(=O)c1ccccc1` [acetophenone] displayed an odorant receptor activation of 0.756.

Consider `CCCCCCCCC=O` [nonyl aldehyde], for which the odorant receptor activation stood at 0.983.

`CCCCCC(=O)O` [caproic acid] returned an odorant receptor activation of 0.921.

In turn, `CC1=CCC(C(C)(C)O)CC1` (stereo unspecified) [terpineol] came in with an odorant receptor activation of 0.871.

Regarding `CCCCCCCCOC(C)=O` [octyl acetate], the odorant receptor activation turned out to be 1.09.

As for `COC(=O)c1ccccc1` [methyl benzoate], the odorant receptor activation is 0.94.

Compound `O=C1CCCCCCCCCCCCCCO1` [pentadecalactone] gave an odorant receptor activation of 0.717.

For `COc1cc(C)ccc1O` [2-methoxy-4-methylphenol], the odorant receptor activation was determined as 1.51.

Turning to `CC12C=CCC1C1CCC3CC(=O)CCC3(C)C1CC2` (stereo unspecified) [androstenone], the odorant receptor activation is 1.77.

Consider `CCCCCCCOC(C)=O` [heptyl acetate], for which the odorant receptor activation stood at 0.58.

In turn, `CC1=NC(C)SC1C` (stereo unspecified) showed an odorant receptor activation of 1.01.

The compound `CC(C)C=O` [isobutyraldehyde] had an odorant receptor activation of 0.563.

The compound `C=CC(C)(O)CCC=C(C)C` (stereo unspecified) [linalool] yielded an odorant receptor activation of 1.24.

Turning to `O=CCc1ccccc1` [phenyl acetaldehyde], the odorant receptor activation was found to be 1.14.

`CCCCCCCCCCC=O` [undecanal] displayed an odorant receptor activation of 1.

`CC1COCc2cc3c(cc21)C(C)(C)C(C)C3(C)C` (stereo unspecified) [galaxolide] came in with an odorant receptor activation of 2.06.

`CCCCCC(C)=O` [2-heptanone] yielded an odorant receptor activation of 0.383.

Take `CC(C)C(=O)O` [isobutyric acid]: the odorant receptor activation was 0.631.

`O=C1CCCCC1` [Cyclohexanone]: the odorant receptor activation came out at 0.832.

As for `CC(C)CCC(=O)O` [4-methylvaleric acid], the odorant receptor activation stood at 1.74.

`CCCCCOC(C)=O` [n-amyl acetate] yielded an odorant receptor activation of 1.24.

The compound `CC12C=CCC1C1CCC3=CC(=O)CCC3(C)C1CC2` (stereo unspecified) [androstadienone] came in with an odorant receptor activation of 0.891.

In turn, `CC(=O)OC(C)(C)C1CC=C(C)CC1` (stereo unspecified) [terpinyl acetate] registered an odorant receptor activation of 1.09.

Regarding `CC=Cc1ccc(O)c(OC)c1` [isoeugenol], the odorant receptor activation was determined as 0.604.

In the case of `CCCC(=O)O` [butyric acid], the odorant receptor activation amounted to 1.13.

Take `C=CCSCC=C` [diallyl sulfide]: the odorant receptor activation was 0.862.

As for `CCCCCCC=O` [heptaldehyde], the odorant receptor activation was 1.32 and 0.605.

In the case of `CCCCCCCCCC=O` [decyl aldehyde], the odorant receptor activation turned out to be 1.2.

Values taken from the odorant receptor screen of Mainland et al. (2015).
